Results: PubChem BioAssay AID256 (DTP/NCI, 2004)
The list shows only some results of the screen, not a fair sample: it is rich in T/C values a quarter to a half above the control, in often repeated tests (any T/C) and in doses without a T/C. Further doses and runs are listed elsewhere. T/C is the treated group as % of the vehicle group. Some entries give survivors of the animals treated and no T/C: the source files T/C as zero there, which appears to mark a toxic dose or a test without result, not a measured value. Some survivor counts are full or nearly so, which does not show that the dose was tolerated: survival well below the control is almost never listed, so the zero probably covers shortened survival too. Survivors were counted at the toxicity check, usually on the fifth day, unless a day is given; later deaths do not show. Schedule codes are those of the source, taken here to give the interval after Q, in days (D) or hours (H), and the number of doses after X. Some entries hold several experiments; the values are given in rising order. For survival time, the PubChem record calls one and a half times the control and up active, and a quarter to a half above the control has no call in these data; cut-offs in other NCI protocols can differ. Signs of the kind (2×) give the number of equal values in this list.

Tested on: CD2F1 mice, L1210 leukemia ip, survival T/C
Test: NCI In Vivo Anticancer Drug Screen. Data for tumor model L1210 Leukemia (intraperitoneal) in CD2F1 (CDF1) mice
Settings: higher T/C = longer survival
Method in brief: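 Transplantable tumor in mice; compound-treated vs vehicle-treated groups. Read-out = treated/control ratio of the measured endpoint.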

[1] = T/C endpoint: median survival time, dose: 80.0 mg/kg/injection, schedule: Q04DX002 (ip), vehicle: water
[2] = T/C endpoint: mean survival time, dose: 400.0 mg/kg/injection, schedule: Q04DX003 (ip), vehicle: saline with Tween-80
[3] = T/C endpoint: mean survival time, dose: 250.0 micrograms/kg/injection, schedule: Q01DX005 (ip), vehicle: sodium bicarbonate

## CC[C@](O)(C(=O)O)c1cc2n(c(=O)c1CO)Cc1cc3ccccc3nc1-2
T/C endpoint: mean survival time, dose: 8.0 mg/kg/injection, schedule: Q04DX003 (ip), vehicle: water
  T/C: 130 % of control
T/C endpoint: mean survival time, dose: 12.5 mg/kg/injection, schedule: Q04DX003 (ip), vehicle: water
  T/C: 140 and 149 % of control
T/C endpoint: mean survival time, dose: 25.0 mg/kg/injection, schedule: Q04DX003 (ip), vehicle: water
  T/C: 131 % of control
T/C endpoint: mean survival time, dose: 50.0 mg/kg/injection, schedule: Q04DX003 (ip), vehicle: water
  T/C: 141 % of control
T/C endpoint: mean survival time, dose: 100.0 mg/kg/injection, schedule: Q04DX003 (ip), vehicle: water
  survivor count: 3 of 6 and 4 of 6
T/C endpoint: median survival time, dose: 3.75 mg/kg/injection, schedule: Q04HX004 (iv), vehicle: dextrose
  T/C: 126 % of control
T/C endpoint: median survival time, dose: 3.75 mg/kg/injection, schedule: Q04HX004 (iv), vehicle: other
  T/C: 131 % of control
T/C endpoint: median survival time, dose: 3.75 mg/kg/injection, schedule: Q04HX004 (iv), vehicle: water
  T/C: 148 % of control
T/C endpoint: median survival time, dose: 6.25 mg/kg/injection, schedule: Q04HX004 (iv), vehicle: saline
  T/C: 144 % of control
T/C endpoint: median survival time, dose: 7.5 mg/kg/injection, schedule: Q04HX004 (iv), vehicle: dextrose
  T/C: 149 % of control
T/C endpoint: median survival time, dose: 10.0 mg/kg/injection, schedule: Q04DX002 (ip), vehicle: water
  T/C: 126, 128 (2×), 133, 134, 137 % of control
T/C endpoint: median survival time, dose: 10.0 mg/kg/injection, schedule: Q04DX002 (iv), vehicle: water
  T/C: 134 % of control
T/C endpoint: median survival time, dose: 12.5 mg/kg/injection, schedule: Q04DX002 (ip), vehicle: water
  T/C: 131 and 134 % of control
T/C endpoint: median survival time, dose: 20.0 mg/kg/injection, schedule: Q04DX002 (ip), vehicle: water
  T/C: 142, 153, 160, 161, 167, 179 % of control
T/C endpoint: median survival time, dose: 20.0 mg/kg/injection, schedule: Q04DX002 (iv), vehicle: water
  T/C: 146 % of control
T/C endpoint: median survival time, dose: 40.0 mg/kg/injection, schedule: Q04DX002 (ip), vehicle: water
  T/C: 175, 177, 178, 181, 202, 215 % of control
T/C endpoint: median survival time, dose: 50.0 mg/kg/injection, schedule: Q04DX003 (ip), vehicle: clinical formulation
  T/C: 125 % of control
[1]
  T/C: 110, 204, 208, 215, 303 % of control
  survivor count: 6 of 6
T/C endpoint: median survival time, dose: 100.0 mg/kg/injection, schedule: Q04DX003 (ip), vehicle: clinical formulation
  survivor count: 5 of 10

## CC(C)(C)C1=CC(=N/S(=O)(=O)c2ccccc2)/C(N=[N+]=[N-])=C(Cl)C/1=N\S(=O)(=O)c1ccccc1
T/C endpoint: mean survival time, dose: 100.0 mg/kg/injection, schedule: Q01DX001 (ip), vehicle: saline with Tween-80
  survivor count: 3 of 3

## O=C(CNC(=O)Nc1ccc(F)cc1)NNC(=O)Nc1ccc(Cl)c([N+](=O)[O-])c1
T/C endpoint: mean survival time, dose: 100.0 mg/kg/injection, schedule: Q01DX009 (ip), vehicle: saline with Tween-80
  survivor count: 5 of 6

## Cc1oc2ccc(NS(=O)(=O)c3ccccc3)cc2c1C(=O)O
T/C endpoint: mean survival time, dose: 200.0 mg/kg/injection, schedule: Q04DX003 (ip), vehicle: saline with Tween-80
  survivor count: 3 of 6
[2]
  survivor count: 0 of 6

## Nc1ncnc2c1ncn2C1OC(CO)C2[O][Sn]([c]3ccccc3)([c]3ccccc3)[O]C21 (stereo not drawn)
T/C endpoint: mean survival time, dose: 25.0 mg/kg/injection, schedule: Q01DX005 (ip), vehicle: other
  survivor count: 0 of 6
T/C endpoint: mean survival time, dose: 50.0 mg/kg/injection, schedule: Q01DX005 (ip), vehicle: other
  survivor count: 0 of 6
T/C endpoint: mean survival time, dose: 100.0 mg/kg/injection, schedule: Q01DX005 (ip), vehicle: other
  survivor count: 0 of 6
T/C endpoint: mean survival time, dose: 200.0 mg/kg/injection, schedule: Q01DX005 (ip), vehicle: other
  survivor count: 0 of 6

## CC(Cc1ccccc1)NC=O (stereo not drawn)
T/C endpoint: mean survival time, dose: 200.0 mg/kg/injection, schedule: Q01DX009 (ip), vehicle: saline with Tween-80
  survivor count: 1 of 3

## CNC(=O)Oc1cccn(C(=O)NC)c1=O
T/C endpoint: mean survival time, dose: 100.0 mg/kg/injection, schedule: Q01DX009 (ip), vehicle: saline
  survivor count: 2 of 6
T/C endpoint: mean survival time, dose: 150.0 mg/kg/injection, schedule: Q01DX009 (ip), vehicle: Klucel (hydroxypropylcellulose) (HPC)
  survivor count: 2 of 6
T/C endpoint: mean survival time, dose: 150.0 mg/kg/injection, schedule: Q01DX009 (ip), vehicle: saline
  survivor count: 2 of 6
T/C endpoint: mean survival time, dose: 200.0 mg/kg/injection, schedule: Q01DX009 (ip), vehicle: Klucel (hydroxypropylcellulose) (HPC)
  survivor count: 0 of 6
T/C endpoint: mean survival time, dose: 200.0 mg/kg/injection, schedule: Q01DX009 (ip), vehicle: saline
  survivor count: 0 of 6
T/C endpoint: mean survival time, dose: 300.0 mg/kg/injection, schedule: Q01DX009 (ip), vehicle: Klucel (hydroxypropylcellulose) (HPC)
  survivor count: 0 of 6
T/C endpoint: mean survival time, dose: 300.0 mg/kg/injection, schedule: Q01DX009 (ip), vehicle: saline
  survivor count: 0 of 6

## O=C(O)C(O)C(O)C(=O)O.[NH-]C1CCCCC1[NH-].[Pt+2] (stereo not drawn)
T/C endpoint: mean survival time, dose: 3.13 mg/kg/injection, schedule: Q04DX003 (ip), vehicle: water
  T/C: 129 % of control
T/C endpoint: mean survival time, dose: 6.25 mg/kg/injection, schedule: Q04DX003 (ip), vehicle: water
  T/C: 144 % of control

## Cc1cccc(CN(C)C)n1
T/C endpoint: mean survival time, dose: 200.0 mg/kg/injection, schedule: Q04DX002 (ip), vehicle: saline
  survivor count: 0 of 3
T/C endpoint: mean survival time, dose: 400.0 mg/kg/injection, schedule: Q04DX002 (ip), vehicle: saline
  survivor count: 0 of 3

## CC1(c2ccccc2)NC(=O)NC1=O (stereo not drawn)
T/C endpoint: mean survival time, dose: 400.0 mg/kg/injection, schedule: Q01DX009 (ip), vehicle: other
  survivor count: 6 of 6

## Nc1nc(N)c2nc(COc3ccc(C(=O)NC(CCC(=O)O)C(=O)O)cc3)ccc2n1 (stereo not drawn)
T/C endpoint: mean survival time, dose: 0.5 mg/kg/injection, schedule: Q01DX005 (ip), vehicle: sodium bicarbonate
  survivor count: 5 of 6
T/C endpoint: mean survival time, dose: 1.0 mg/kg/injection, schedule: Q01DX005 (ip), vehicle: sodium bicarbonate
  survivor count: 3 of 6
T/C endpoint: mean survival time, dose: 2.0 mg/kg/injection, schedule: Q01DX005 (ip), vehicle: sodium bicarbonate
  survivor count: 5 of 6
T/C endpoint: mean survival time, dose: 4.0 mg/kg/injection, schedule: Q01DX005 (ip), vehicle: sodium bicarbonate
  survivor count: 2 of 6
T/C endpoint: mean survival time, dose: 8.0 mg/kg/injection, schedule: Q01DX005 (ip), vehicle: sodium bicarbonate
  survivor count: 2 of 6
T/C endpoint: mean survival time, dose: 16.0 mg/kg/injection, schedule: Q01DX005 (ip), vehicle: sodium bicarbonate
  survivor count: 2 of 6
T/C endpoint: mean survival time, dose: 62.5 micrograms/kg/injection, schedule: Q01DX005 (ip), vehicle: sodium bicarbonate
  T/C: 132 % of control
T/C endpoint: mean survival time, dose: 125.0 micrograms/kg/injection, schedule: Q01DX005 (ip), vehicle: sodium bicarbonate
  T/C: 130 % of control (2×)
[3]
  T/C: 145 % of control
  survivor count: 6 of 6
T/C endpoint: mean survival time, dose: 500.0 micrograms/kg/injection, schedule: Q01DX005 (ip), vehicle: sodium bicarbonate
  survivor count: 6 of 6

## O=C1C=CC(=O)N1c1cc(Cl)ccc1Cl
[2]
  survivor count: 0 of 3
